Assay results as given in PubChem BioAssay AID493014 (National Center for Advancing Translational Sciences (NCATS), 2011).
Some of the results follow. Shown are side measurements of this screen, not its main read-out; they come without a call. Most of these compounds were active or inconclusive in the main read-out, so they are no random draw. Potencies come from curve fits of mixed quality, noted in brackets.

Assay: qHTS Assay to Find Inhibitors of Chronic Active B-Cell Receptor Signaling
Conditions: ABC-DLBCL IkBa-CBG/CBR reporter, luminescence ratio (green luciferase fused to IkBa over red control in TMD8 lymphoma cells), 4 h
In short: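 Doxycycline induced both beetle luciferases in TMD8 lymphoma cells; IKK-driven degradation limits the IkappaBalpha-fused green signal, while red luminescence normalises for cell number and nonspecific effects. Compounds tested up to 46 uM, 4 hrs.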

[1] = measured here: CBR red luminescence, cell number
[2] = measured here: IkBa-CBG green luminescence

Compound: Cc1ccccc1CS(=O)(=O)c1nnc([C@H](CC(C)C)NC(=O)OC(C)(C)C)o1
- AC50 [1]: 11.2 µM [falling, partial curve, poor fit]
- AC50 [2]: 11.2 µM [rising, partial curve, poor fit]

Compound: COc1cc(NS(=O)(=O)c2ccc(NC(=O)CSC3=NCCS3)cc2)nc(OC)n1
- AC50 [1]: 22.4 µM [falling, partial curve, poor fit]

Compound: CCN(CC)c1ccc(/C=N/NC(=O)C(O)(c2ccccc2)c2ccccc2)o1
- AC50 [2]: 20.6 µM [falling, single point]

Compound: O=C(O)CC1SC(=Nc2cccc(O)c2)NC1=O (stereo not given)
- AC50 [1]: 20.6 µM [rising, partial curve, poor fit]

Compound: O=C(CNCc1ccccc1Cl)Nc1ccc2c(c1)OCCO2
- AC50 [1]: 4.47 µM [falling, full curve, poor fit]

Compound: Cc1nn(Cc2ccccc2)c(C)c1NC(=O)CSc1nc(-c2ccccc2)nc2c1cnn2-c1ccccc1
- AC50 [1]: 35.5 µM [falling, partial curve, poor fit]

Compound: Nc1cccc(-c2nc3ccccc3[nH]2)c1
- AC50 [1]: 32.6 µM [falling, single point]

Compound: O=C(O)c1ccc(Cl)c(NCc2ccncc2)c1
- AC50 [1]: 0.794 µM [falling, full curve, poor fit]

Compound: COc1ccc(C(=O)Nc2ccc(-c3ccc(C)o3)cc2)cc1S(=O)(=O)N1CCOCC1
- AC50 [1]: 23.1 µM [falling, single point]

Compound: CCO/C(C)=N/n1c2nc3ccccc3nc2c2c(=O)n(Cc3ccccc3Cl)c(C)nc21
- AC50 [1]: 15.8 µM [falling, partial curve, poor fit]

Compound: Cc1ccc(NC(CC(=O)c2ccccc2)c2ccc(F)cc2)cc1 (stereo not given)
- AC50 [1]: 12.6 µM [rising, single point]

Compound: COc1cc(OC)cc(C(=O)Nc2nnc(Cc3ccc(OC)c(OC)c3)s2)c1
- AC50 [1]: 35.5 µM [rising, single point]

Compound: CCOC(=O)/C(=C\c1cccnc1)C(=O)c1cc(C(C)=O)c(Nc2ccccc2)s1
- AC50 [1]: 13 µM [falling, partial curve]
- AC50 [2]: 32.6 µM [rising, partial curve, poor fit]

Compound: N#C/C(=C\c1ccccc1C(F)(F)F)C(=O)Nc1ccccc1
- AC50 [1]: 29.1 µM [rising, single point]

Compound: CC1CCCCN1Cc1c(O)ccc2c(=O)c(-c3nc4ccccc4s3)coc12 (stereo not given)
- AC50 [1]: 35.5 µM [falling, single point]

Compound: O=S(=O)(c1cccc(F)c1)N1CCN(c2nc(-c3cccnc3)nc3ccccc23)CC1
- AC50 [1]: 16.4 µM [rising, single point]

Compound: COc1ccc(NC2CCCN(C(=O)c3ccncc3)C2)cc1 (stereo not given)
- AC50 [1]: 35.5 µM [falling, partial curve, poor fit]

Compound: O=S(=O)(NCc1ccc(F)cc1)c1ccc(-c2cnc(C3CC3)o2)cc1
- AC50 [1]: 17.8 µM [falling, single point]

Compound: CCC(=O)c1ccc(OCC(O)Cn2nc(C)c(C(C)=O)c2C)cc1 (stereo not given)
- AC50 [1]: 22.4 µM [rising, partial curve, poor fit]

Compound: CC(=O)c1ccc(NC(=S)NC(C)c2ccc(Cl)cc2Cl)cc1 (stereo not given)
- AC50 [1]: 35.5 µM [falling, single point]

Compound: O=[N+]([O-])c1ccc2nc(-c3ccccc3)oc2c1
- AC50 [1]: 1.12 µM [rising, full curve]

Compound: Cc1ccccc1OCC(=O)Nc1ccc2c(c1)C(=O)N(CCC(=O)O)C2=O
- AC50 [1]: 11.2 µM [falling, partial curve, poor fit]

Compound: Cc1cc(C)n2nc(C(=O)N3CCCC(N4CCN(c5ccccc5C)CC4)C3)cc2n1 (stereo not given)
- AC50 [1]: 14.1 µM [rising, partial curve, poor fit]

Compound: COC(=O)c1ccc(CNC(=O)Cn2cnnn2)cc1
- AC50 [1]: 0.112 µM [rising, full curve, poor fit]

Compound: CC(=O)c1ccc(N2CCN(S(=O)(=O)c3ccc4c5c3CC(=O)N5CC(C)S4)CC2)cc1 (stereo not given)
- AC50 [1]: 6.31 µM [falling, single point]

Compound: CCOC(=O)N1CCN(C(=O)c2ccc3c(c2)N(CC)CCS3)CC1
- AC50 [1]: 20.6 µM [rising, partial curve, poor fit]

Compound: C=CCNC(=O)c1cc(-c2ccc3c(c2)OCO3)on1
- AC50 [1]: 2.24 µM [falling, partial curve]

Compound: CCCn1c2ccccc2c2nnc(SCc3[nH]c(=O)[nH]c3C(=O)CCCCC(=O)OCC)nc21
- AC50 [1]: 8.2 µM [falling, partial curve, poor fit]

Compound: COc1cc(O)c2c(c1)OC(c1ccc(O)cc1)CC2=O (stereo not given)
- AC50 [1]: 14.1 µM [falling, single point]

Compound: Cc1cc(Nc2nnnn2-c2ccccc2)n(-c2ccccc2)n1
- AC50 [1]: 35.5 µM [falling, single point]

Compound: CCN(CC)CCN(C(=O)c1ccc2c(c1)CCCC2)c1nc2ccc(F)cc2s1
- AC50 [1]: 22.4 µM [falling, partial curve, poor fit]

Compound: CC/C(C)=N\NC(=O)CNC(=O)c1ccc(Cl)cc1Cl
- AC50 [2]: 25.1 µM [falling, partial curve, poor fit]

Compound: Cc1ccccc1-n1nc(C)c2cc(C(=O)N3CCN(S(=O)(=O)c4ccccc4)CC3)sc21
- AC50 [1]: 0.58 µM [falling, partial curve, poor fit]

Compound: O=C(NNC(=O)C1CC=CCC1)c1ccccc1O (stereo not given)
- AC50 [1]: 7.08 µM [falling, partial curve]

Compound: O=C(Nc1cccc(S(=O)(=O)C(F)F)c1)c1ccc(S(=O)(=O)N2CCCC2)cc1
- AC50 [1]: 2 µM [rising, partial curve, poor fit]

Compound: Cc1cccc(CSCCNC(=O)CCSc2ccccc2)c1
- AC50 [1]: 29.1 µM [falling, single point]

Compound: Cc1cc(C)cc(NC(=O)COC(=O)c2ccc(CN3CCCC3=O)cc2)c1
- AC50 [1]: 2.31 µM [rising, partial curve, poor fit]

Compound: O=C(Nc1cc(C(F)(F)F)ccc1Cl)C(Sc1ccccn1)c1ccccc1 (stereo not given)
- AC50 [1]: 11.2 µM [rising, partial curve]

Compound: COC(=O)c1cc(CSC(=N)N)ccc1OCCC(C)C
- AC50 [1]: 17.8 µM [falling, single point]

Compound: Clc1ccc(Oc2cccc(/C=N/n3cnnc3)c2)cc1
- AC50 [1]: 18.4 µM [rising, single point]
- AC50 [2]: 23.1 µM [falling, single point]

Compound: CSc1ccccc1NC(=O)CN(C)C(=O)COc1cccc2cccnc12
- AC50 [2]: 18.4 µM [falling, single point]

Compound: C=CCN1CC(c2nc3ccccc3n2Cc2cccc3ccccc23)CC1=O (stereo not given)
- AC50 [1]: 35.5 µM [falling, single point]

Compound: O=C1C=C(O)c2c(O)cccc2C1=O
- AC50 [1]: 35.5 µM [falling, single point]

Compound: COCCOCCOCCC(=O)NC1CC2CCC1(C)C2(C)C (stereo not given)
- AC50 [1]: 35.5 µM [rising, single point]

Compound: CN(CC(=O)Nc1ccccc1C(=O)NC1CC1)Cc1ccc(N(C)C)cc1
- AC50 [1]: 11.6 µM [rising, partial curve, poor fit]
- AC50 [2]: 14.6 µM [falling, partial curve, poor fit]

Compound: O=C(CSc1ccccc1)Nc1nnc(-c2ccco2)o1
- AC50 [1]: 18.4 µM [falling, single point]

Compound: O=S(Cc1ccc(Br)cc1)Cc1nnc(SCc2c(F)cccc2Cl)n1-c1ccccc1 (stereo not given)
- AC50 [1]: 23.1 µM [falling, single point]

Compound: CNCCC=C1c2ccccc2CCc2ccccc21
- AC50 [1]: 32.6 µM [falling, partial curve, poor fit]

Compound: CN(c1ccc(O)cc1)c1nc(-c2ccccc2)cs1
- AC50 [1]: 11.6 µM [falling, partial curve, poor fit]

Compound: CN(Cc1ccccc1)S(=O)(=O)c1ccc(OCC(=O)Nc2cccc([N+](=O)[O-])c2)cc1
- AC50 [1]: 6.51 µM [falling, single point]

Compound: Cc1cccc(C(=O)N[C@H](C(=O)OCc2cc(=O)n3c(n2)sc2ccccc23)C(C)C)c1
- AC50 [1]: 29.1 µM [falling, single point]

Compound: CC(CCOC1=NS(=O)(=O)c2ccccc21)NC(=O)C(=O)Nc1ccccc1 (stereo not given)
- AC50 [1]: 10 µM [falling, partial curve]

Compound: CCCc1cc(=O)n2[nH]c(-c3ccco3)nc2n1
- AC50 [1]: 23.1 µM [falling, single point]

Compound: C/C(N)=C(/C#N)C(=O)COC(=O)CNS(=O)(=O)c1c(F)cccc1F
- AC50 [1]: 11.2 µM [rising, partial curve]

Compound: CC[C@]1(O)CC2CN(CCc3c([nH]c4ccccc34)[C@@](C(=O)OC)(c3cc4c(cc3OC)N(C=O)[C@H]3[C@@](O)(C(=O)OC)[C@H](OC(C)=O)[C@]5(CC)C=CCN6CC[C@]43[C@@H]65)C2)C1 (stereo not given in full)
- AC50 [1]: 1.58 µM [rising, full curve]
- AC50 [2]: 1.41 µM [falling, full curve]

Compound: OCCN1CCN(CC(O)COc2ccc3c(c2)OCO3)CC1 (stereo not given)
- AC50 [1]: 11.2 µM [rising, partial curve, poor fit]

Compound: COCCN(C(=O)C1CCN(C(=O)c2ccccc2C)CC1)c1c(N)n(CC(C)C)c(=O)[nH]c1=O
- AC50 [1]: 29.1 µM [rising, single point]

Compound: COc1cccc2c1OCC/C2=N\NC(=O)C(C)Oc1ccc([N+](=O)[O-])cc1 (stereo not given)
- AC50 [2]: 14.1 µM [rising, partial curve, poor fit]

Compound: O=C(CSc1nnc2ccccn12)c1ccc(Cl)cc1
- AC50 [1]: 35.5 µM [falling, single point]

Compound: Cc1occc1-c1nnc(SCC(=O)Nc2nc3ccccc3s2)o1
- AC50 [1]: 0.731 µM [rising, full curve]
